# In US7183279B2, “Histogranin-like peptides and non-peptides, processes for their preparation and uses thereof” (University of Ottawa, priority 2006, dated 2007):
# Experiments:
# Swiss Webster mice [1] = assay: Mouse writhing test (acetic acid-induced); assay type: in vivo; details: i.c.v.
# Swiss Webster mice [2] = assay: Mouse tail flick assay (radiant heat); assay type: in vivo; details: i.c.v.
# Experimental: Mouse tail flick assay. […] Briefly, the latency to withdraw the tail from a focused light stimulus was determined using a photocell. […] Baseline latencies were determined before experimental treatment as the mean of two trials and a maximal latency of 12 s was used to minimize tissue damage. Post-treatment latencies were determined 5 min after i.c.v. injection. The antinociceptive effect was expressed as the percentage of the maximum possible effect, as calculated by the formula: % MPE=[(post-injection latency-baseline latency)/(cutoff latency-baseline latency)]×100. […] Group % MPE means were compared using one-way ANOVAs and P≦0.05 was considered significant.
structure (smiles),measurement,setting,value
"CN1CC[C@]23c4c5ccc(O)c4O[C@H]2[C@@H](O)C=C[C@H]3[C@H]1C5 [Morphine, reference compound]",Potency ratio relative to Histogranin (HN),Swiss Webster mice [1],34.8
same,Potency ratio relative to [Ser1]HN,Swiss Webster mice [2],72.6
